According to patent US5948759A (Nycomed Imaging AS, priority 1994, dated 1999):

Test: general procedure: Fmoc solid-phase peptide synthesis; Fmoc-Thr(But)-TentaGel ACS resin (2-methoxy-4-alkoxybenzyl alcohol handle; Rapp Polymere)
Details: for final HPLC purity: 215 nm
[1] = whole synthesis, scale 0.1 mmol

Question: With “Abu^91,98,102,112,114,127 -[FVII Glu^82 -Thr^128 ]” as the substance, how does the “final HPLC purity” value (whole synthesis, scale of the general procedure 0.1 mmol) read?
Answer: 96%

Question: What about the crude mass [1] of the same substance?
Answer: 13 mg

Question: And the isolated mass [1]?
Answer: 2.0 mg

Question: For “Disulphide-cyclo [Cys^91 -Cys^102 ]-Abu^98,112,114,127 -[FVII Glu^82 -Thr^128 ]”, which “final HPLC purity” value (oxidative folding step) is on record?
Answer: 95%

Question: For “Disulphide-cyclo [Cys^91 -Cys^102,Cys^98 -Cys^112,Cys^114 -Cys^127 ]-[FVII Glu^82 -Thr^128 ]”, which “final HPLC purity” value (oxidative folding step) is on record?
Answer: 95%

Question: For “Disulphide-cyclo [Cys^114 -Cys^127 ]-Abu^91,98,102,112, -[FVII Glu^82 -Thr^128 ]”, which “final HPLC purity” value (oxidative folding step) is on record?
Answer: 92%
